PMC11574178
No constants are given. Whether binding was seen depends on the method and setting. Binding seen in cells or lysates may run through a third protein. Some results given as binding are weak or reduced against the parent protein; the word gives no strength. Blank lines part the entries; values can stand above or below the molecule they belong to.

Amino acid sequences for entries named in this document (tags omitted).
UniProt Q9WTL8: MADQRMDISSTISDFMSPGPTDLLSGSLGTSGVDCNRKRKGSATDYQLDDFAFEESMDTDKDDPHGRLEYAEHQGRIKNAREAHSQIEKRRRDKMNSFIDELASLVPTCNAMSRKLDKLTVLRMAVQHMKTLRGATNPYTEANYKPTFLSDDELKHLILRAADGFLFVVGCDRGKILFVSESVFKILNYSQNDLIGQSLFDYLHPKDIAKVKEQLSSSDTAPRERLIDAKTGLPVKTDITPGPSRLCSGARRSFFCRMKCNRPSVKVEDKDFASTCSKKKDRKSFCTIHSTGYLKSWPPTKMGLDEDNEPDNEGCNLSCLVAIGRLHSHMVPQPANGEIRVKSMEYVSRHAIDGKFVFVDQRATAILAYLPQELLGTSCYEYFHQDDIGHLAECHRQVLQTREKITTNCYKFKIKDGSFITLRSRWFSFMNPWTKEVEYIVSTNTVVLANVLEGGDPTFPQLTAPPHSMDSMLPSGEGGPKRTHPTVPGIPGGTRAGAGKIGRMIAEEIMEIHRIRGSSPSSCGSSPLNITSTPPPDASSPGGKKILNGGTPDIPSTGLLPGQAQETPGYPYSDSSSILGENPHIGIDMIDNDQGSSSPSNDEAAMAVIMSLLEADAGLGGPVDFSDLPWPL
UniProt Q9D832: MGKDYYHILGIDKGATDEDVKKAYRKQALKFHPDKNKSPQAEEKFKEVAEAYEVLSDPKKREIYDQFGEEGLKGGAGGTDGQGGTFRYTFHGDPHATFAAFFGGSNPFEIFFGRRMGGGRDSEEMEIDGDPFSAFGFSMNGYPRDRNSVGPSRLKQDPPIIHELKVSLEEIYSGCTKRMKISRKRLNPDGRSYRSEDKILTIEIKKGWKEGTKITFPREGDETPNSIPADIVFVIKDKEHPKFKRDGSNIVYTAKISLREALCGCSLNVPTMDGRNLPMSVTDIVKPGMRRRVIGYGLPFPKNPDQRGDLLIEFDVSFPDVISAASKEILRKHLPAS

Columns and labels:
[1] = molecular target: T1, mitochondrial Na+/Ca2+/Li+ exchanger (NCLX), endogenous (mouse (endogenous in hippocampal neurons)) (UniProt Q925Q3); assay: co-IP; reciprocal immunoprecipitation of endogenous proteins from hippocampal neuron lysate; Pierce Magnetic IP/Co-IP kit, antibody overnight at 4 °C, protein A/G magnetic beads; normal IgG as control
T1 sequence: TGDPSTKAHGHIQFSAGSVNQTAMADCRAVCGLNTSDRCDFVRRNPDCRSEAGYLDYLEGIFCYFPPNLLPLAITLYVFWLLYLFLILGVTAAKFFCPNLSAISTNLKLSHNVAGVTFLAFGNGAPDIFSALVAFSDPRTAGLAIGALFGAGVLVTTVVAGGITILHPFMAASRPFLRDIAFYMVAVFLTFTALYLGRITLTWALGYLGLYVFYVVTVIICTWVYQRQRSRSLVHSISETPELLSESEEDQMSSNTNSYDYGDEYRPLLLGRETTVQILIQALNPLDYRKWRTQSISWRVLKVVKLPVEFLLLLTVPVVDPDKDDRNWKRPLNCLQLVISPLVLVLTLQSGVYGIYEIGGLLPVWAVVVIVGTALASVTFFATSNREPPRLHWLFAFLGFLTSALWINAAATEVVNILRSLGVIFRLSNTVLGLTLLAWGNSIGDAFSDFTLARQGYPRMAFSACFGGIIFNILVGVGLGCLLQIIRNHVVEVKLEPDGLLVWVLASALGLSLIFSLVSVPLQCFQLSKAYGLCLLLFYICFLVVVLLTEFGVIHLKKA

[2] = molecular target: FLAG-tagged wild-type Bmal1 expressed in HEK293T cells (UniProt Q9WTL8); assay: co-IP; HEK293T cells transfected with Bmal1 (wild type or mutants) alone or with Clock, with or without high glucose and OGT inhibitors; immunoprecipitation with anti-FLAG antibody, blot for Clock
[3] = molecular target: Brain and Muscle ARNT-Like 1 (Bmal1), endogenous (mouse (endogenous in primary hippocampal neurons and hippocampal CA1 neurons)) (UniProt Q9WTL8); assay: co-IP; hippocampal CA1 neurons isolated from db/m, db/db, control or STZ mice treated with vehicle, S424A-pe or S424-pe (5 mg/kg); lysates precipitated with Bmal1 antibodies, blot for Clock
[4] = molecular target: Wild-type Bmal1 re-expressed in primary hippocampal neurons with endogenous Bmal1 stably silenced (UniProt Q9WTL8); assay: co-IP; primary hippocampal neurons with endogenous Bmal1 stably silenced and expressing WT or S424A Bmal1, normal or high glucose; lysates precipitated with Bmal1 antibodies, blot for Clock
[5] = molecular target: Brain and Muscle ARNT-Like 1 (Bmal1), endogenous (mouse (endogenous in primary hippocampal neurons and hippocampal CA1 neurons)) (UniProt Q9WTL8); assay: co-IP; endogenous Bmal1 precipitated from lysate of mouse primary hippocampal neurons, blot for Clock; cells in normal glucose (5.5 mmol/L) or high glucose (25 mmol/L) with vehicle or OSMI-1 (20 μM), or with the peptides S424-pe / S424A-pe
[6] = molecular target: Brain and Muscle ARNT-Like 1 (Bmal1), endogenous (mouse (endogenous in primary hippocampal neurons and hippocampal CA1 neurons)) (UniProt Q9WTL8); assay: co-IP; reciprocal immunoprecipitation of endogenous proteins from hippocampal neuron lysate; Pierce Magnetic IP/Co-IP kit, antibody overnight at 4 °C, protein A/G magnetic beads; normal IgG as control

binding [1]: binds
Molecule: DnaJ homolog subfamily B member 4 (Dnajb4), endogenous (from UniProt Q9D832 1-337)

binding [2]: binds
B1: Clock expressed in HEK293T cells (protein, UniProt O08785 1-855)
chain: MVFTVSCSKMSSIVDRDDSSIFDGLVEEDDKDKAKRVSRNKSEKKRRDQFNVLIKELGSMLPGNARKMDKSTVLQKSIDFLRKHKETTAQSDASEIRQDWKPTFLSNEEFTQLMLEALDGFFLAIMTDGSIIYVSESVTSLLEHLPSDLVDQSIFNFIPEGEHSEVYKILSTHLLESDSLTPEYLKSKNQLEFCCHMLRGTIDPKEPSTYEYVRFIGNFKSLTSVSTSTHNGFEGTIQRTHRPSYEDRVCFVATVRLATPQFIKEMCTVEEPNEEFTSRHSLEWKFLFLDHRAPPIIGYLPFEVLGTSGYDYYHVDDLENLAKCHEHLMQYGKGKSCYYRFLTKGQQWIWLQTHYYITYHQWNSRPEFIVCTHTVVSYAEVRAERRRELGIEESLPETAADKSQDSGSDNRINTVSLKEALERFDHSPTPSASSRSSRKSSHTAVSDPSSTPTKIPTDTSTPPRQHLPAHEKMTQRRSSFSSQSINSQSVGPSLTQPAMSQAANLPIPQGMSQFQFSAQLGAMQHLKDQLEQRTRMIEANIHRQQEELRKIQEQLQMVHGQGLQMFLQQSNPGLNFGSVQLSSGNSNIQQLTPVNMQGQVVPANQVQSGHISTGQHMIQQQTLQSTSTQQSQQSVMSGHSQQTSLPSQTPSTLTAPLYNTMVISQPAAGSMVQIPSSMPQNSTQSATVTTFTQDRQIRFSQGQQLVTKLVTAPVACGAVMVPSTMLMGQVVTAYPTFATQQQQAQTLSVTQQQQQQQQQPPQQQQQQQQSSQEQQLPSVQQPAQAQLGQPPQQFLQTSRLLHGNPSTQLILSAAFPLQQSTFPPSHHQQHQPQQQQQLPRHRTDSLTDPSKVQPQ

binding [3]: binds
binding [4]: binds
binding [5]: binds
B2: Circadian Locomoter Output Cycles Kaput (Clock), endogenous (protein, UniProt O08785 1-855)
chain: MVFTVSCSKMSSIVDRDDSSIFDGLVEEDDKDKAKRVSRNKSEKKRRDQFNVLIKELGSMLPGNARKMDKSTVLQKSIDFLRKHKETTAQSDASEIRQDWKPTFLSNEEFTQLMLEALDGFFLAIMTDGSIIYVSESVTSLLEHLPSDLVDQSIFNFIPEGEHSEVYKILSTHLLESDSLTPEYLKSKNQLEFCCHMLRGTIDPKEPSTYEYVRFIGNFKSLTSVSTSTHNGFEGTIQRTHRPSYEDRVCFVATVRLATPQFIKEMCTVEEPNEEFTSRHSLEWKFLFLDHRAPPIIGYLPFEVLGTSGYDYYHVDDLENLAKCHEHLMQYGKGKSCYYRFLTKGQQWIWLQTHYYITYHQWNSRPEFIVCTHTVVSYAEVRAERRRELGIEESLPETAADKSQDSGSDNRINTVSLKEALERFDHSPTPSASSRSSRKSSHTAVSDPSSTPTKIPTDTSTPPRQHLPAHEKMTQRRSSFSSQSINSQSVGPSLTQPAMSQAANLPIPQGMSQFQFSAQLGAMQHLKDQLEQRTRMIEANIHRQQEELRKIQEQLQMVHGQGLQMFLQQSNPGLNFGSVQLSSGNSNIQQLTPVNMQGQVVPANQVQSGHISTGQHMIQQQTLQSTSTQQSQQSVMSGHSQQTSLPSQTPSTLTAPLYNTMVISQPAAGSMVQIPSSMPQNSTQSATVTTFTQDRQIRFSQGQQLVTKLVTAPVACGAVMVPSTMLMGQVVTAYPTFATQQQQAQTLSVTQQQQQQQQQPPQQQQQQQQSSQEQQLPSVQQPAQAQLGQPPQQFLQTSRLLHGNPSTQLILSAAFPLQQSTFPPSHHQQHQPQQQQQLPRHRTDSLTDPSKVQPQ

binding [6]: binds
B3: O-GlcNAc transferase (OGT), endogenous (enzyme, UniProt Q8CGY8 1-1046)
chain: MASSVGNVADSTEPTKRMLSFQGLAELAHREYQAGDFEAAERHCMQLWRQEPDNTGVLLLLSSIHFQCRRLDRSAHFSTLAIKQNPLLAEAYSNLGNVYKERGQLQEAIEHYRHALRLKPDFIDGYINLAAALVAAGDMEGAVQAYVSALQYNPDLYCVRSDLGNLLKALGRLEEAKACYLKAIETQPNFAVAWSNLGCVFNAQGEIWLAIHHFEKAVTLDPNFLDAYINLGNVLKEARIFDRAVAAYLRALSLSPNHAVVHGNLACVYYEQGLIDLAIDTYRRAIELQPHFPDAYCNLANALKEKGSVAEAEDCYNTALRLCPTHADSLNNLANIKREQGNIEEAVRLYRKALEVFPEFAAAHSNLASVLQQQGKLQEALMHYKEAIRISPTFADAYSNMGNTLKEMQDVQGALQCYTRAIQINPAFADAHSNLASIHKDSGNIPEAIASYRTALKLKPDFPDAYCNLAHCLQIVCDWTDYDERMKKLVSIVAEQLEKNRLPSVHPHHSMLYPLSHGFRKAIAERHGNLCLDKINVLHKPPYEHPKDLKLSDGRLRVGYVSSDFGNHPTSHLMQSIPGMHNPDKFEVFCYALSPDDGTNFRVKVMAEANHFIDLSQIPCNGKAADRIHQDGIHILVNMNGYTKGARNELFALRPAPIQAMWLGYPGTSGALFMDYIITDQETSPAEVAEQYSEKLAYMPHTFFIGDHANMFPHLKKKAVIDFKSNGHIYDNRIVLNGIDLKAFLDSLPDVKIVKMKCPDGGDNPDSSNTALNMPVIPMNTIAEAVIEMINRGQIQITINGFSISNGLATTQINNKAATGEEVPRTIIVTTRSQYGLPEDAIVYCNFNQLYKIDPSTLQMWANILKRVPNSVLWLLRFPAVGEPNIQQYAQNMGLPQNRIIFSPVAPKEEHVRRGQLADVCLDTPLCNGHTTGMDVLWAGTPMVTMPGETLASRVAASQLTCLGCLELIAKSRQEYEDIAVKLGTDLEYLKKIRGKVWKQRISSPLFNTKQYTMELERLYLQMWEHYAAGNKPDHMIKPVEVTESA
